Reference: publication PMC12106737
These are yes or no findings as the source states them, for the method shown. In cells and extracts the contact can be indirect. Some binding calls cover weakened binding; strength is not graded here. Sequences can lack the tags named with a protein.

Sequences of proteins named here, by UniProt entry; tags and fusion partners are left off.
UniProt Q13620: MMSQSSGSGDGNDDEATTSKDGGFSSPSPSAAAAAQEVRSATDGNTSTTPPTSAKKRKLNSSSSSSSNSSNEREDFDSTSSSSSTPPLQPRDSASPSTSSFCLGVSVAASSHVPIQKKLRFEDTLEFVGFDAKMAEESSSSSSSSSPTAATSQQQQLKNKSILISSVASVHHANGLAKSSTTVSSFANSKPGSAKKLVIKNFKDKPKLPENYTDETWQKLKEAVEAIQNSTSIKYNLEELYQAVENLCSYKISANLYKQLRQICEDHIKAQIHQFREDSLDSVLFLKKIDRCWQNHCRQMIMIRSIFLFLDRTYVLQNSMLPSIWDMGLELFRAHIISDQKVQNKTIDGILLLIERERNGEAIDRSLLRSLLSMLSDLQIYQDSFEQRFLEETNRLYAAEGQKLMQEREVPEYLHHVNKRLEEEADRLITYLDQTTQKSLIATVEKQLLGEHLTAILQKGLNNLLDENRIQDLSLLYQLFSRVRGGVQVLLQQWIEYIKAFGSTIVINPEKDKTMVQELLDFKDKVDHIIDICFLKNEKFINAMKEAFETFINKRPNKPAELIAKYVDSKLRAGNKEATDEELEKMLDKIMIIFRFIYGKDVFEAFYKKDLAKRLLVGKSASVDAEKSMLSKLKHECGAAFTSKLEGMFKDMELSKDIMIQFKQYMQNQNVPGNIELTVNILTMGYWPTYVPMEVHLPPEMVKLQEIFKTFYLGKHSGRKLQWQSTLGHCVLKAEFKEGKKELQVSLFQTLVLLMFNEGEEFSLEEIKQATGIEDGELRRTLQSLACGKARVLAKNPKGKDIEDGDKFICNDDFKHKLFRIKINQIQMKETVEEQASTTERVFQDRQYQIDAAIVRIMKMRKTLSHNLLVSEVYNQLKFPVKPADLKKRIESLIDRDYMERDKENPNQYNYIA
UniProt Q13619: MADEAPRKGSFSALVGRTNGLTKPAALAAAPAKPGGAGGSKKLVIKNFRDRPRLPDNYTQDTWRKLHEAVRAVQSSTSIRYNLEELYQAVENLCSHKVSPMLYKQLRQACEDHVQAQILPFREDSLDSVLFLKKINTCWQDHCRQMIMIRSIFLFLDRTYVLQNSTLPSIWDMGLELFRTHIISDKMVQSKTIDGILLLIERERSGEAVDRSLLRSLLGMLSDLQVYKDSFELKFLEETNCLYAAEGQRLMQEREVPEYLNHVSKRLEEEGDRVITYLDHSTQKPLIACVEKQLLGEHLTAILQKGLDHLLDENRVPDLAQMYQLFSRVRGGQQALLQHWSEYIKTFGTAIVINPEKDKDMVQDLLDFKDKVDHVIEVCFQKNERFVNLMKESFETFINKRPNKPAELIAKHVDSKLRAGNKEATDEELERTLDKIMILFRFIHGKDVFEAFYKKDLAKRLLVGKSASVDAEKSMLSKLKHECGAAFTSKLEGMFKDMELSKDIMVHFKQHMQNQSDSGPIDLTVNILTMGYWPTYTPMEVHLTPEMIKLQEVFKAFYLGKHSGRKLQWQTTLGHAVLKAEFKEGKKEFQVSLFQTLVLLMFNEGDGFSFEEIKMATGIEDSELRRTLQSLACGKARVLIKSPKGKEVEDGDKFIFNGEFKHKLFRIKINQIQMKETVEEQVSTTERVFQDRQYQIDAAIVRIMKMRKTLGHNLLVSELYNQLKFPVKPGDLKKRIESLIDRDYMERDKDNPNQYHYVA
UniProt Q93034: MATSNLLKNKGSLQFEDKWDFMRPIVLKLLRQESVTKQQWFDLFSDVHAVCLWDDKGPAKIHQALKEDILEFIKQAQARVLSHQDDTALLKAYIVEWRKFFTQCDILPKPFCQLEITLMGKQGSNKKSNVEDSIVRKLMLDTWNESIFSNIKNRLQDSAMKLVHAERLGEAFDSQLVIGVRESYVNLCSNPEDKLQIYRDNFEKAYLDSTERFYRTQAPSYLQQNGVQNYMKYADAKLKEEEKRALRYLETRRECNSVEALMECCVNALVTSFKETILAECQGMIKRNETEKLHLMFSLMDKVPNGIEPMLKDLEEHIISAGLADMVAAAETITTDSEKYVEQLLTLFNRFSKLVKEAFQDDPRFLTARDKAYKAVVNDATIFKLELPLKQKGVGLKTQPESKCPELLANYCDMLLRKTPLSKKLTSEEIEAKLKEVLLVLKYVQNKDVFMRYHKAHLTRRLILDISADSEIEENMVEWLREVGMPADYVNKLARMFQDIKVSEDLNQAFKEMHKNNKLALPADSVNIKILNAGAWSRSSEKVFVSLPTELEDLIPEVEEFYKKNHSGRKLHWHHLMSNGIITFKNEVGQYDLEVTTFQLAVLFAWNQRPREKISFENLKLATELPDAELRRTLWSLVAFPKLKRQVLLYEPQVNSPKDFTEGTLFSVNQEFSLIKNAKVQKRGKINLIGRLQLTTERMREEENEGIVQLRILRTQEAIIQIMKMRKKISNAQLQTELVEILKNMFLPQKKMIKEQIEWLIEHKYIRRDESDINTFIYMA
UniProt Q14999: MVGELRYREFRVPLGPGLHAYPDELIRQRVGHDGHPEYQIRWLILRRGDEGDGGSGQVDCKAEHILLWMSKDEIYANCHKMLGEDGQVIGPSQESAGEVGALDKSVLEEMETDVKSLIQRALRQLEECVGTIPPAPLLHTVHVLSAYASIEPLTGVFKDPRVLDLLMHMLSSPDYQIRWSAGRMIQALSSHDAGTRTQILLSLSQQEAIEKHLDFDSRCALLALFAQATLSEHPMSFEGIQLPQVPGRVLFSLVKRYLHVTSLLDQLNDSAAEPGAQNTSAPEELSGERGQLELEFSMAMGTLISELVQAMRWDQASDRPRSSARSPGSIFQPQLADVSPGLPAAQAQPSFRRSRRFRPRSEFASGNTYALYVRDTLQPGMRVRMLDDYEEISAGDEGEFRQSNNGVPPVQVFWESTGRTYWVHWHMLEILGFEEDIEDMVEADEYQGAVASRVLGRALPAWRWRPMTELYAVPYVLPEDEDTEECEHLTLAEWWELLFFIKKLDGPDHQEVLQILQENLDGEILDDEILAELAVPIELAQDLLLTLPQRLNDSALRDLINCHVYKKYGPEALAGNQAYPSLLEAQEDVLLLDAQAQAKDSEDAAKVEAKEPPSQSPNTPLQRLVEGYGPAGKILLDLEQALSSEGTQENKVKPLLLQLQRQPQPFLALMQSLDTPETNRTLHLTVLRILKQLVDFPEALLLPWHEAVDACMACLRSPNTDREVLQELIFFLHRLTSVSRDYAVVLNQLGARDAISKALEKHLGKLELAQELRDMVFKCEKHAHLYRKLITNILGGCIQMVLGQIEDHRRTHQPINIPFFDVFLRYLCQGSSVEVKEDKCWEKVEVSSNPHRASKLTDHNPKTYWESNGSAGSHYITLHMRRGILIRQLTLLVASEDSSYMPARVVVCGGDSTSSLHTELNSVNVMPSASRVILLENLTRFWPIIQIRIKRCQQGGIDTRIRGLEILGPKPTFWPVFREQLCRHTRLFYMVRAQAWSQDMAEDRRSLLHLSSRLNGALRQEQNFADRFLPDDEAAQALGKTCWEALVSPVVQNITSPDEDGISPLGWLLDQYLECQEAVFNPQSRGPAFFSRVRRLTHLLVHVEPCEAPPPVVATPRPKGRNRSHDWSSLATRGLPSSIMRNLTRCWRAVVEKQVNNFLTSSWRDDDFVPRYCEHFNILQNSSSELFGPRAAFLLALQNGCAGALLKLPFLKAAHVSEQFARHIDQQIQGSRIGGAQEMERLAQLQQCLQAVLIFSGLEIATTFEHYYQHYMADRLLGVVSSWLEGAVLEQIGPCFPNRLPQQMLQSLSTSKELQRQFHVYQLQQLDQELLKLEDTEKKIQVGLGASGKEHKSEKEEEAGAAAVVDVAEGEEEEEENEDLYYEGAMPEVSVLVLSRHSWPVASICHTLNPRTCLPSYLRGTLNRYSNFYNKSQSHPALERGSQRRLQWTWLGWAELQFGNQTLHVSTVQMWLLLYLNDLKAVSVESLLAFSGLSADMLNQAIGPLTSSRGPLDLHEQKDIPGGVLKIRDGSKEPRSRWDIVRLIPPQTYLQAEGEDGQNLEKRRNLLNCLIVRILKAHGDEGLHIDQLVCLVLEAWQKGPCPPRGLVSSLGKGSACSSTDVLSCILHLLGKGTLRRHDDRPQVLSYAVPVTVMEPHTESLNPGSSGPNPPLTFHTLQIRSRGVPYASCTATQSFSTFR

Biological target: T1, Flag-tagged FBP1 (fructose-1,6-bisphosphatase) (human) (UniProt P09467)
T1 sequence: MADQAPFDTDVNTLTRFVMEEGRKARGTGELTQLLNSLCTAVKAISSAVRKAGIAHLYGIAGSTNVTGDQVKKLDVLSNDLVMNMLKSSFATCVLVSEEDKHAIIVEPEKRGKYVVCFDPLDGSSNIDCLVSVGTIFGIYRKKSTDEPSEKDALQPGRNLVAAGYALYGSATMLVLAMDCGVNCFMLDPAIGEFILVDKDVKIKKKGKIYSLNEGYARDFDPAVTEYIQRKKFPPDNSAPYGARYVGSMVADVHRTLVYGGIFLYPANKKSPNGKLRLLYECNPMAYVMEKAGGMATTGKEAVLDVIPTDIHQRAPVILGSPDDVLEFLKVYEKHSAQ
Assay: co-IP; HEK293T cells transfected with Flag-FBP1 and Myc-Cullins; cell lysates, immunoprecipitation and Western blot by standard protocols

Question: For Myc-CUL4B (from UniProt Q13620 1-913), which binding is on record?
Answer: binds

Question: Myc-CUL4A (from UniProt Q13619 1-759) was tested. Which binding did it give?
Answer: no binding

Question: Myc-CUL5 (from UniProt Q93034 1-780) was tested. Which binding did it give?
Answer: no binding

Question: For Myc-CUL7 (from UniProt Q14999 1-1698), which binding is on record?
Answer: no binding
